Reference: article doi:10.1101/156901
Results are given in words; binding and its absence hold for the method and conditions named. Binding seen in cells or lysates may run through a third protein. Some binding calls cover weakened binding; strength is not graded here.

Protein sequences, listed by entry. Tags and fused reporters are not part of them.
UniProt Q9QZL0: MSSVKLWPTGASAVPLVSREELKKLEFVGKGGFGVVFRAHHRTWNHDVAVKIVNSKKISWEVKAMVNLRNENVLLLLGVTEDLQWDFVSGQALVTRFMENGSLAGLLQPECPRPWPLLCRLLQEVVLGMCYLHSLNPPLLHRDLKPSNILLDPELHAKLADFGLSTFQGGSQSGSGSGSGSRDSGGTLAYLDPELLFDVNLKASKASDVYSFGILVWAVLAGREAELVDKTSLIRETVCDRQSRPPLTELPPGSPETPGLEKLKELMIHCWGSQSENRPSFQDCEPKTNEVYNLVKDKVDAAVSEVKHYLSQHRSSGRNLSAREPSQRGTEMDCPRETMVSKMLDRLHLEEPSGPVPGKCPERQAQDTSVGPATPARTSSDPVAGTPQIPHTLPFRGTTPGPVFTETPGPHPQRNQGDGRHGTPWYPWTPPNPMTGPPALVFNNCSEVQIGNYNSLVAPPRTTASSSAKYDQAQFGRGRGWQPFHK

T1: endogenous RARα (mouse (endogenous in TT2 ES cells)) (UniProt P11416)
T1 sequence: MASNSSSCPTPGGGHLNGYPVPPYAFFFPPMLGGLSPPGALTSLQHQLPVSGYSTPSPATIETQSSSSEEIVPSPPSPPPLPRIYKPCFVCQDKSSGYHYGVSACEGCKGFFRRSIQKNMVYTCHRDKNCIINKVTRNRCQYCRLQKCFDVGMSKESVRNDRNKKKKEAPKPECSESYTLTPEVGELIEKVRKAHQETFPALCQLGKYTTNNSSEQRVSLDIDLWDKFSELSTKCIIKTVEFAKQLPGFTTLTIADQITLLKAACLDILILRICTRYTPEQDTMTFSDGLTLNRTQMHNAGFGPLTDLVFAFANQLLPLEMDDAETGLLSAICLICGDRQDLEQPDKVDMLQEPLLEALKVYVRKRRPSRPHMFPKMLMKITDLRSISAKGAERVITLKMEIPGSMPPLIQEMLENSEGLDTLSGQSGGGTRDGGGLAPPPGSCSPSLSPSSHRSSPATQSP


Legend:
[1] = target: T1, endogenous RARα (mouse (endogenous in TT2 ES cells)); test: co-IP
[2] = target: 3xFlag-Wt Ripk3 expressed in Tet-On shCasp8 ES cells (mouse) (UniProt Q9QZL0); test: co-IP

Molecule	binding [1]	binding [2]
endogenous RIPK3 (from UniProt Q9QZL0 1-486)	binds	
endogenous RARα (protein, UniProt P11416 1-462) MASNSSSCPTPGGGHLNGYPVPPYAFFFPPMLGGLSPPGALTSLQHQLPVSGYSTPSPATIETQSSSSEEIVPSPPSPPPLPRIYKPCFVCQDKSSGYHYGVSACEGCKGFFRRSIQKNMVYTCHRDKNCIINKVTRNRCQYCRLQKCFDVGMSKESVRNDRNKKKKEAPKPECSESYTLTPEVGELIEKVRKAHQETFPALCQLGKYTTNNSSEQRVSLDIDLWDKFSELSTKCIIKTVEFAKQLPGFTTLTIADQITLLKAACLDILILRICTRYTPEQDTMTFSDGLTLNRTQMHNAGFGPLTDLVFAFANQLLPLEMDDAETGLLSAICLICGDRQDLEQPDKVDMLQEPLLEALKVYVRKRRPSRPHMFPKMLMKITDLRSISAKGAERVITLKMEIPGSMPPLIQEMLENSEGLDTLSGQSGGGTRDGGGLAPPPGSCSPSLSPSSHRSSPATQSP		binds
